# The supplement of paper PMC10849652
# The chains behind the UniProt entries cited, without tags or fusion partners. Where a name states a change or a piece, a line headed by the entry shows the natural chain unless it says otherwise.
# UniProt O75717: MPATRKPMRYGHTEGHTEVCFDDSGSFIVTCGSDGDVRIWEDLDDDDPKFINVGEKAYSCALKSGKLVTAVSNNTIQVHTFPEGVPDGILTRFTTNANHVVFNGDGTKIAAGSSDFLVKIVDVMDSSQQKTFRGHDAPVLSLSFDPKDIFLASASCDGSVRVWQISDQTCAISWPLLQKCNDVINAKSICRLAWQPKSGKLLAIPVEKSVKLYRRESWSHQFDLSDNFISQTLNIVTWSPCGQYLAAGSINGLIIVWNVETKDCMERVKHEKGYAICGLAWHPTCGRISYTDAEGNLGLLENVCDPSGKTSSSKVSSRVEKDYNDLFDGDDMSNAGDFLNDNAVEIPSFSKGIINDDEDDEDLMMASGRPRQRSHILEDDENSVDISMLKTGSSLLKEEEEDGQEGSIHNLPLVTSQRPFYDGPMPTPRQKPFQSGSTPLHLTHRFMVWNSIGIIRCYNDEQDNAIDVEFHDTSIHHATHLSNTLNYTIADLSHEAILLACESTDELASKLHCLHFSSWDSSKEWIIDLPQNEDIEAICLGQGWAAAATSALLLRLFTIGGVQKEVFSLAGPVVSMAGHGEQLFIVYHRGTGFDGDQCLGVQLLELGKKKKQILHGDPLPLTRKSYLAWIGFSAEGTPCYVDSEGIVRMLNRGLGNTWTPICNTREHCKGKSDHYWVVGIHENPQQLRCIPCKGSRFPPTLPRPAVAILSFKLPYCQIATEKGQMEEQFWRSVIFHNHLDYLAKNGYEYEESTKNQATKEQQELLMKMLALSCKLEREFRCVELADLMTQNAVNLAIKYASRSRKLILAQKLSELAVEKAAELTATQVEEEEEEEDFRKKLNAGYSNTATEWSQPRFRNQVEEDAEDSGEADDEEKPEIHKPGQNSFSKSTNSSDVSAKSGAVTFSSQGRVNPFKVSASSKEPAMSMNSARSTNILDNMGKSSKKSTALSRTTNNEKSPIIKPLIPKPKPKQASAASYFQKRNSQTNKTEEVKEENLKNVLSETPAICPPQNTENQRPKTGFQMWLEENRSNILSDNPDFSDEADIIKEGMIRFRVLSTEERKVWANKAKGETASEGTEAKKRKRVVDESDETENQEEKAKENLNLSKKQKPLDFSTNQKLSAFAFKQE
# UniProt O15213: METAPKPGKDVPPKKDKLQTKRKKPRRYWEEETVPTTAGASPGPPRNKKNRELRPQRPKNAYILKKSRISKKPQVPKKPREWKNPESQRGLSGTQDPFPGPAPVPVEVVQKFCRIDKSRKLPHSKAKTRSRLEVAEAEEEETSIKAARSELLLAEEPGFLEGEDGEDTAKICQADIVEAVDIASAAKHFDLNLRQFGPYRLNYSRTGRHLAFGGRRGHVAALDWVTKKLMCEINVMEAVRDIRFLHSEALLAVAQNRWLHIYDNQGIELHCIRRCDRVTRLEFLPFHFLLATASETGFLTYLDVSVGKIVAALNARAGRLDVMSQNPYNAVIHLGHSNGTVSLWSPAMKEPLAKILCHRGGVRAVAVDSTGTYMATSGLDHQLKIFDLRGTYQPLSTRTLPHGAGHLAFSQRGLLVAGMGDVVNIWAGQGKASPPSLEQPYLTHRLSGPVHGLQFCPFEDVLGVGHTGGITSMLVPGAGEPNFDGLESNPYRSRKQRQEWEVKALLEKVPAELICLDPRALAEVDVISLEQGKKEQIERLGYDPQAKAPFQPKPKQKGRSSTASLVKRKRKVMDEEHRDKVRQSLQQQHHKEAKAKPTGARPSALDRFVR
# UniProt Q9HAD4: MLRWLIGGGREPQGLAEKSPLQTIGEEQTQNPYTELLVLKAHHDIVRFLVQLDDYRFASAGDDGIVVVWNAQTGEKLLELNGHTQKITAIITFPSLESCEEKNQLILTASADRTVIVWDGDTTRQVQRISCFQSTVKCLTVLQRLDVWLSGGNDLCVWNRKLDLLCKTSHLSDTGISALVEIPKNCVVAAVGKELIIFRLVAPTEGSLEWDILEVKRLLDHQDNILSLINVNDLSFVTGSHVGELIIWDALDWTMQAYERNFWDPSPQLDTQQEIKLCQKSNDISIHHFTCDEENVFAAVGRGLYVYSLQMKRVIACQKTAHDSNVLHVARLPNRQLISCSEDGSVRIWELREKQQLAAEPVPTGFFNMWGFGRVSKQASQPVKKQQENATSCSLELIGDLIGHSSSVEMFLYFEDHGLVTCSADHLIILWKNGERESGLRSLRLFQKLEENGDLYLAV
# UniProt P08670, whole entry, looked up: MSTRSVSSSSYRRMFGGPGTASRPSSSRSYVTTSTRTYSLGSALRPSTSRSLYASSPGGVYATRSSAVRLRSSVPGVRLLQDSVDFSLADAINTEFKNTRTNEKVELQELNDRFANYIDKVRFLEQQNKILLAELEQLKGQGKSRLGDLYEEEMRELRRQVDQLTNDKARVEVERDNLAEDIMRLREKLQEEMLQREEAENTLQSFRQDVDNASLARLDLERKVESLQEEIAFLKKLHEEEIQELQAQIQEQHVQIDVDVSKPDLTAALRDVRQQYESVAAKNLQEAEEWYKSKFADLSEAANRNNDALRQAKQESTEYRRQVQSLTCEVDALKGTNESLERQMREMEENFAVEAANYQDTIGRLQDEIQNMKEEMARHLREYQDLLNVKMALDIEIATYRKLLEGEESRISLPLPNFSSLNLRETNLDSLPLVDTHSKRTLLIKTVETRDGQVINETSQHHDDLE
# UniProt Q4G0F5, whole entry, looked up: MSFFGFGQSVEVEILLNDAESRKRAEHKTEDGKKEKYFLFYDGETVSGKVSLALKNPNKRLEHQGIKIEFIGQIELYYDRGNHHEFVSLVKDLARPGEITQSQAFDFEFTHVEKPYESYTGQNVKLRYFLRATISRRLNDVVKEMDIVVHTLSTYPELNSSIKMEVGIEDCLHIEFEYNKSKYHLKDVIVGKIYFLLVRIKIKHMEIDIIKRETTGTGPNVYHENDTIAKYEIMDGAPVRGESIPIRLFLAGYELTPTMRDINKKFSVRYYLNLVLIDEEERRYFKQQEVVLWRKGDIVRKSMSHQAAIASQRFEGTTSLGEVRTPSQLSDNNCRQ
# UniProt Q9BV38: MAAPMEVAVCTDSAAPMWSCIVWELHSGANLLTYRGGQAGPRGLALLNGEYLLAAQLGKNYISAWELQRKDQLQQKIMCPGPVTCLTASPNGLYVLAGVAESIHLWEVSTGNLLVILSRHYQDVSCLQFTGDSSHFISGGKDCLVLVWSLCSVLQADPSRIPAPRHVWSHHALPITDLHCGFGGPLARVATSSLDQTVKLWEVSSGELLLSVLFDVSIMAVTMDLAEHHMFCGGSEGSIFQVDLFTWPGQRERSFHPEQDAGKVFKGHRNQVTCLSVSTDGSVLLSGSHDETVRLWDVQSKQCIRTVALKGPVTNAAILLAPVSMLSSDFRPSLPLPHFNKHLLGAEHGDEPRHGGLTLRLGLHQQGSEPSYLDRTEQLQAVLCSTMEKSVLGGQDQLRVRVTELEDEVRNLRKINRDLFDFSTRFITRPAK
# UniProt A3KMH1: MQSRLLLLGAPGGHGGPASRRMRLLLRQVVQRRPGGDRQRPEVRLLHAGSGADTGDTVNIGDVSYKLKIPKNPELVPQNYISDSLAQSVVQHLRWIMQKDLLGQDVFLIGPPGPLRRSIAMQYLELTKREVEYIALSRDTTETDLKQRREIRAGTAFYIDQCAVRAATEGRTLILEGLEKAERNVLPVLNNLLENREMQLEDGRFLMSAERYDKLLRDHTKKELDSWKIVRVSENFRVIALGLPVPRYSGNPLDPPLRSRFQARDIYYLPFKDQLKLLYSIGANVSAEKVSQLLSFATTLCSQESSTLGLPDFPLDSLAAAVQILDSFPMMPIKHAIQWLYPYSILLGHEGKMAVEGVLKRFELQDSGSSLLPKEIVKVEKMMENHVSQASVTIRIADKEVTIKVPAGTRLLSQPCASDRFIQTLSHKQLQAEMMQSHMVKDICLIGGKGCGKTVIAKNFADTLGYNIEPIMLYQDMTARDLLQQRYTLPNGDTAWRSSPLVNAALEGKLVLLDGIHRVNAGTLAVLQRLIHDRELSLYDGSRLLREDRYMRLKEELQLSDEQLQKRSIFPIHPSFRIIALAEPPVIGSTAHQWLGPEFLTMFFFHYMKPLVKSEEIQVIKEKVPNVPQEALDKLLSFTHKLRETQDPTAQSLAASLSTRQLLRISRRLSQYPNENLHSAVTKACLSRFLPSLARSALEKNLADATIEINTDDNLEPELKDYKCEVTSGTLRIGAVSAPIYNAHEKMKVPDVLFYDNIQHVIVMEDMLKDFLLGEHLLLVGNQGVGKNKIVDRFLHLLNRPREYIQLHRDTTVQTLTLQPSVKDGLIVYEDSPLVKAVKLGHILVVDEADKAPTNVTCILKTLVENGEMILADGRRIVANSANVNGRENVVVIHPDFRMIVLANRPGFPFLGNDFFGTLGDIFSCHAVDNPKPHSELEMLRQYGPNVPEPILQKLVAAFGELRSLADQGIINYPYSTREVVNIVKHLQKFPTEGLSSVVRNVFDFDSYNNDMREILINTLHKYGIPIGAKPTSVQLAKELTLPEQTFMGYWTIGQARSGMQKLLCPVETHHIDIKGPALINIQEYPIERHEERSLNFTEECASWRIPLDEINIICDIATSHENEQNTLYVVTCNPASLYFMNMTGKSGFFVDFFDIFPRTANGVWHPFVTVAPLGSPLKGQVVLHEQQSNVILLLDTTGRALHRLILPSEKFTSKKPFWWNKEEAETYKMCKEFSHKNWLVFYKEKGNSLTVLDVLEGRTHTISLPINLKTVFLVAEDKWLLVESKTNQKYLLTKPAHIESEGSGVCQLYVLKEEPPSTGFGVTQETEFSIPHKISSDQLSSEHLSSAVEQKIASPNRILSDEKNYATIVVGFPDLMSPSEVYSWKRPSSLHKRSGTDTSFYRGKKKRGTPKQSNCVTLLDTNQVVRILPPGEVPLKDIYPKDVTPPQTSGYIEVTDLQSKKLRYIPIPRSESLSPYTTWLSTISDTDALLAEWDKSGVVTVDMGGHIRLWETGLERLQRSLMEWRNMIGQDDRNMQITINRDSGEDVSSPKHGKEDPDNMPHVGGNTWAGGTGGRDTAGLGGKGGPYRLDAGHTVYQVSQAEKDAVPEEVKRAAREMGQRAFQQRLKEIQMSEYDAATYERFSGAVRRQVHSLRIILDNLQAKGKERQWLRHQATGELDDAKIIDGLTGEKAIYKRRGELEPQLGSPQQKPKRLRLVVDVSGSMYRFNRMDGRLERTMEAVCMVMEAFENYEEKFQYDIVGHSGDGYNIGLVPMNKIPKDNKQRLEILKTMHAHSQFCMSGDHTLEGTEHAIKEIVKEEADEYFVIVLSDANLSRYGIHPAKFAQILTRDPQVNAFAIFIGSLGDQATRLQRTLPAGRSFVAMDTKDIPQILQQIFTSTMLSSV
# UniProt P45880: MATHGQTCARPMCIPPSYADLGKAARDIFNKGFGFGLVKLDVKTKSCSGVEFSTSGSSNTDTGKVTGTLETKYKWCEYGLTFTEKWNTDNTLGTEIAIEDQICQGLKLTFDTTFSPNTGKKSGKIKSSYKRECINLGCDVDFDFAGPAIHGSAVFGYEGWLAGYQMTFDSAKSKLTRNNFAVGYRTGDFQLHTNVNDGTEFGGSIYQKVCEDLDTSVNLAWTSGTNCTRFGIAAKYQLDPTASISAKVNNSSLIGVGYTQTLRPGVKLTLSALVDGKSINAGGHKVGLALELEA
# UniProt Q96S55: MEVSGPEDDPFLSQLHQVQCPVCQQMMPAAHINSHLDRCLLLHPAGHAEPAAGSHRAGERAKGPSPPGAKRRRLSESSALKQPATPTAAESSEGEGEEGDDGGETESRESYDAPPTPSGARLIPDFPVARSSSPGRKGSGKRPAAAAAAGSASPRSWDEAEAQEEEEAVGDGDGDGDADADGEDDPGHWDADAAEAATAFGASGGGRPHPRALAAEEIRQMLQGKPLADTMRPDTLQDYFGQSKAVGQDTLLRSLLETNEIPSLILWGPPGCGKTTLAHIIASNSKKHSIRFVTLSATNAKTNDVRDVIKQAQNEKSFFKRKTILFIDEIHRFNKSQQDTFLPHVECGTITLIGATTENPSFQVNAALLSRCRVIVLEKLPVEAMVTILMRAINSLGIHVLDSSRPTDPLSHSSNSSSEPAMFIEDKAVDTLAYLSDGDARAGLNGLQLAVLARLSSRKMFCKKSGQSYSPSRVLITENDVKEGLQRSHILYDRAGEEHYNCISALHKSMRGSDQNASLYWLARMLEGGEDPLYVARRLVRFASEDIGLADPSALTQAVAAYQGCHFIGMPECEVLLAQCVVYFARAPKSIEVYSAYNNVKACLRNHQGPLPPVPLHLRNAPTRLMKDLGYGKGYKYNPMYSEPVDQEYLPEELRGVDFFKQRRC
# The other results are listed elsewhere or left out.
# Tests used:
# Assay in all cases: log2 fold change, soluble protein after heating vs DMSO (PISA); higher = thermal stabilisation; K562 cells, 10 uM, 30 min; active = over 0.2 and 3.5 SD of the protein, either way, in both replicates (recomputed)
# [1] = compound: NC(=O)Nc1cc(-c2cccc(F)c2)sc1C(=O)N[C@H]1CCCNC1
# Procedure, shortened: (§1)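 Soluble protein was defined as the supernatant after 21,000xg for 90 min. It came from K562 cells at 2×10^6 cells/mL given 10 μM compound for 30 min, heated in aliquots for 3 min across 48°C-58°C, pooled, and extracted in PBS with 0.5% NP-40 at 4°C, and was quantified by TMTpro 16plex LC-MS/MS with equalised channel sums. Thermal stability against control samples, from duplicates, is reported as log2 fold change.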
# [2] = compound: NC(=O)c1cnc(N[C@@H]2CCCC[C@@H]2N)nc1Nc1cccc(-n2nccn2)c1
# Procedure, shortened: as §1
# [3] = compound: NC1(c2ccc(-c3nc4ccn5c(=O)[nH]nc5c4cc3-c3ccccc3)cc2)CCC1
# Procedure, shortened: as §1
# [4] = compound: NCC(=O)Nc1ccc(-n2nc(C(F)(F)F)cc2-c2ccc3c(ccc4ccccc43)c2)cc1
# Procedure, shortened: as §1
# entinostat = compound: Nc1ccccc1NC(=O)c1ccc(CNC(=O)OCc2cccnc2)cc1 [entinostat]
# Procedure, shortened: as §1
# vorinostat = compound: O=C(CCCCCCC(=O)Nc1ccccc1)NO [vorinostat]
# Procedure, shortened: as §1
# citarinostat = compound: O=C(CCCCCCNC(=O)c1cnc(N(c2ccccc2)c2ccccc2Cl)nc1)NO [citarinostat]
# Procedure, shortened: as §1
# silmitasertib = compound: O=C(O)c1ccc2c(c1)nc(Nc1cccc(Cl)c1)c1ccncc12 [silmitasertib]
# Procedure, shortened: as §1
# [5] = compound: O=C1NC(=O)C(c2cnc3ccccn23)=C1c1cn2c3c(cc(F)cc13)CN(C(=O)N1CCCCC1)CC2
# Procedure, shortened: as §1
# [6] = compound: c1cc(OCCN2CCCCC2)cc(-c2n[nH]c3ccc(-c4nnc[nH]4)cc23)c1
# Procedure, shortened: as §1
# entospletinib = compound: c1cn2cc(-c3ccc4cn[nH]c4c3)nc(Nc3ccc(N4CCOCC4)cc3)c2n1 [entospletinib]
# Procedure, shortened: as §1
Target,log2 fold change [1],log2 fold change [2],log2 fold change [3],log2 fold change [4],log2 fold change (entinostat),log2 fold change (vorinostat),log2 fold change (citarinostat),log2 fold change (silmitasertib),log2 fold change [5],log2 fold change [6],log2 fold change (entospletinib)
WDHD1 (UniProt O75717),inactive: -0.037,inactive: -0.054,inactive: -0.156,inactive: -0.106,inactive: 0.09,inactive: 0.119,inactive: 0.176,inactive: 0.025,inactive: -0.107,inactive: -0.001,–
WAPL isoform 3 (UniProt Q7Z5K2),inactive: -0.009,inactive: -0.033,active: -0.423,inactive: -0.066,inactive: 0.01,inactive: 0.082,inactive: 0.198,inactive: 0.067,inactive: -0.148,inactive: 0.078,–
WDR46 (UniProt O15213),inactive: 0.098,inactive: 0.083,inactive: 0.253,inactive: 0.177,inactive: -0.027,inactive: -0.042,inactive: -0.139,inactive: 0.173,inactive: 0.257,inactive: -0.143,–
WDR41 (UniProt Q9HAD4),inactive: 0,inactive: -0.005,inactive: -0.173,inactive: -0.005,inactive: 0.038,inactive: 0.091,inactive: 0.036,inactive: 0.031,inactive: -0.11,inactive: -0.07,–
VPS35L (UniProt Q7Z3J2),inactive: -0.038,inactive: 0.004,inactive: -0.137,inactive: -0.012,inactive: 0.006,inactive: -0.039,inactive: 0.08,inactive: 0.111,inactive: -0.006,inactive: -0.062,–
WDR11 (UniProt Q9BZH6),inactive: 0.039,inactive: -0.164,inactive: -0.087,inactive: -0.192,inactive: -0.024,inactive: -0.007,inactive: -0.067,inactive: -0.025,inactive: -0.016,inactive: -0.036,–
VPS13B (UniProt Q7Z7G8),inactive: -0.064,inactive: -0.033,inactive: -0.069,inactive: -0.039,inactive: -0.033,inactive: 0.041,inactive: 0.018,inactive: 0.038,inactive: -0.043,inactive: -0.03,–
WBP4 (UniProt O75554),active: 0.28,inactive: 0.079,inactive: 0.006,inactive: 0.111,inactive: 0.058,inactive: 0.098,inactive: 0.055,inactive: -0.026,inactive: 0,inactive: -0.007,–
VPS26C (UniProt O14972),inactive: -0.063,inactive: 0.028,inactive: -0.085,inactive: -0.123,inactive: 0.058,inactive: 0.141,inactive: 0.111,inactive: 0.031,inactive: 0.023,inactive: -0.019,inactive: -0.002
WDTC1 (UniProt Q8N5D0),inactive: -0.006,inactive: -0.001,inactive: -0.282,inactive: 0.018,inactive: -0.012,inactive: 0.036,inactive: -0.002,inactive: 0.027,inactive: -0.048,inactive: -0.151,inactive: -0.04
VIM (UniProt P08670),inactive: -0.036,inactive: -0.099,inactive: -0.106,inactive: 0.146,inactive: -0.02,inactive: -0.103,inactive: -0.084,inactive: 0.092,inactive: 0.099,inactive: -0.249,inactive: 0.158
VEZF1 (UniProt Q14119),inactive: 0.032,inactive: -0.006,inactive: 0.143,inactive: -0.028,inactive: -0.139,inactive: 0.009,inactive: -0.196,inactive: 0.117,inactive: 0.195,inactive: -0.111,inactive: -0.009
WDR36 (UniProt Q8NI36),inactive: -0.036,inactive: 0.093,inactive: 0.131,inactive: 0.034,inactive: -0.058,inactive: 0.001,inactive: 0.013,inactive: 0.158,inactive: 0.157,inactive: -0.093,inactive: -0.012
VCX3B (UniProt Q9H321),inactive: -0.023,inactive: -0.01,inactive: 0.067,inactive: 0,inactive: -0.017,inactive: -0.061,inactive: -0.039,inactive: -0.072,inactive: -0.062,inactive: -0.058,inactive: -0.008
WDR5 (UniProt P61964),inactive: 0.065,inactive: 0.039,inactive: 0.139,inactive: 0.035,inactive: -0.012,inactive: -0.019,inactive: 0.023,inactive: 0.037,inactive: 0.087,inactive: -0.074,inactive: 0.057
VTI1A (UniProt Q96AJ9),inactive: -0.07,inactive: 0.014,inactive: -0.125,inactive: -0.014,inactive: -0.009,inactive: 0.028,inactive: -0.016,inactive: 0.051,inactive: -0.01,inactive: -0.039,–
VWA5A (UniProt O00534),inactive: -0.022,inactive: -0.016,inactive: -0.038,inactive: -0.084,inactive: 0.088,inactive: 0.065,inactive: -0.089,inactive: -0.009,inactive: 0.014,inactive: 0.169,inactive: -0.022
WIPF3 (UniProt A6NGB9),inactive: 0.001,inactive: -0.052,inactive: -0.118,inactive: 0.155,inactive: -0.049,inactive: 0,inactive: -0.029,inactive: -0.032,inactive: 0.018,inactive: 0.046,inactive: -0.001
WRB (UniProt O00258),inactive: 0.003,inactive: 0.019,inactive: -0.018,inactive: 0.006,inactive: -0.011,inactive: -0.035,inactive: 0.034,inactive: 0.028,inactive: 0.062,inactive: -0.042,–
VPS26B (UniProt Q4G0F5),inactive: -0.037,inactive: -0.077,inactive: -0.106,inactive: -0.038,inactive: -0.004,inactive: 0.018,inactive: 0.019,inactive: 0,inactive: 0.007,inactive: -0.037,inactive: -0.016
WDR45B (UniProt Q5MNZ6),inactive: 0.169,inactive: -0.053,inactive: -0.094,inactive: -0.008,inactive: 0.012,inactive: -0.006,inactive: 0.028,inactive: 0.027,inactive: 0,inactive: 0.001,inactive: -0.095
VPS13D (UniProt Q5THJ4),inactive: -0.027,inactive: -0.11,inactive: -0.178,inactive: -0.016,inactive: -0.026,inactive: 0.068,inactive: -0.029,inactive: 0.015,inactive: 0.26,inactive: -0.012,inactive: 0.059
WDR18 (UniProt Q9BV38),inactive: 0.013,inactive: -0.021,inactive: -0.043,inactive: 0.054,inactive: 0.019,inactive: 0.025,inactive: 0.018,inactive: 0.013,inactive: -0.03,inactive: 0.017,–
VPS11 (UniProt Q9H270),inactive: -0.012,inactive: -0.053,inactive: -0.159,inactive: -0.028,inactive: 0.015,inactive: 0.145,inactive: 0.065,inactive: 0.025,inactive: 0.024,inactive: 0.084,–
VWA8 (UniProt A3KMH1),inactive: -0.017,inactive: -0.024,inactive: -0.135,inactive: -0.016,inactive: 0.008,inactive: 0.096,inactive: 0.048,inactive: -0.046,inactive: -0.071,inactive: -0.039,–
VDAC2 (UniProt P45880),inactive: 0.001,inactive: -0.031,inactive: -0.017,inactive: -0.025,inactive: -0.004,inactive: -0.027,inactive: 0.03,inactive: -0.03,inactive: -0.033,inactive: -0.03,inactive: -0.003
VPS35 (UniProt Q96QK1),inactive: -0.013,inactive: -0.03,inactive: -0.147,inactive: -0.013,inactive: 0.024,inactive: 0.025,inactive: 0.067,inactive: -0.032,inactive: -0.049,inactive: -0.031,inactive: -0.03
WRNIP1 (UniProt Q96S55),inactive: -0.031,inactive: -0.04,inactive: -0.304,inactive: -0.08,inactive: 0.147,inactive: 0.15,inactive: 0.207,inactive: -0.04,inactive: -0.134,inactive: -0.148,inactive: -0.148

# Copied from above (2 entries):
Target,log2 fold change [1],log2 fold change [2],log2 fold change [3],log2 fold change [4],log2 fold change (entinostat),log2 fold change (vorinostat),log2 fold change (citarinostat),log2 fold change (silmitasertib),log2 fold change [5],log2 fold change [6],log2 fold change (entospletinib)
VPS26C (UniProt O14972),inactive: -0.063,inactive: 0.028,inactive: -0.085,inactive: -0.123,inactive: 0.058,inactive: 0.141,inactive: 0.111,inactive: 0.031,inactive: 0.023,inactive: -0.019,inactive: -0.002
WDTC1 (UniProt Q8N5D0),inactive: -0.006,inactive: -0.001,inactive: -0.282,inactive: 0.018,inactive: -0.012,inactive: 0.036,inactive: -0.002,inactive: 0.027,inactive: -0.048,inactive: -0.151,inactive: -0.04
